The record followed here is publication PMC9257043.

Sequences of proteins named here, by UniProt entry; tags and fusion partners are left off. A change or cut given only in a name is not applied to a line headed by its entry. A line that says so, or that is headed by a name, gives the form on record, which may keep a tag or linker. Residues count along the entry.
UniProt P09038, residues 143-288: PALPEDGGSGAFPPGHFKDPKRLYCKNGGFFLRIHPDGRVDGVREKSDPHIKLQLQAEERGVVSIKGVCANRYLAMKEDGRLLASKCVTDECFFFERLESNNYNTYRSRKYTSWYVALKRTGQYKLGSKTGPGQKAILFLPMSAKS
recombinant extracellular ligand binding domain of human FGFR1 (FGFR1-L) (P11362-7, form named): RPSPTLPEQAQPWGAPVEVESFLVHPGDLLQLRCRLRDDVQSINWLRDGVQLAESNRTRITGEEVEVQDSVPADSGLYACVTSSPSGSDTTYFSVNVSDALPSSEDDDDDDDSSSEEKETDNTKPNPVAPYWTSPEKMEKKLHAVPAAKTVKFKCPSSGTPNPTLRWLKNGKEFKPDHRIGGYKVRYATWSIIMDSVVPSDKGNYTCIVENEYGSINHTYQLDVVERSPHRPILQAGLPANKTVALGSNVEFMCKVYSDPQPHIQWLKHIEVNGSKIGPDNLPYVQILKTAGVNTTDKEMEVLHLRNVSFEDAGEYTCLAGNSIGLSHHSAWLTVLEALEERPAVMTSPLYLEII

The experiment has as its target human basic FGF (bFGF) (human) (UniProt P09038). Nature of the experiment: BLI; Octet RED 96; biotinylated human bFGF (8 ng/μl) immobilised on Biosensors, rSmFGFRA-L and human FGFR1-L as analytes at 30 ng/μl and 23 ng/μl; kinetic buffer; 30°C, 1000 rpm; both purified. Background: In BLI a coated tip is dipped into the sample, and binding shifts an interference pattern.

No constants are given. Whether binding was seen depends on the method and setting. Some entries that bind do so weakly or less than the wild type.

As for “recombinant extracellular ligand binding domain of human FGFR1 (FGFR1-L) (from UniProt P11362-7 22-376) (domain or fragment)”, the binding result was “binds”.
